Results are given in words; binding and its absence hold for the method and conditions named. In cells and extracts the contact can be indirect. A yes stands for co-enrichment or nearness to the bait. Other partners may have been found.
Biological target: TRIM25 immunoprecipitated for mass spectrometry (UniProt Q14258)
Assay: affinity purification with mass spectrometry; immunoprecipitation of TRIM25 and relative quantification of proteins in control and TRIM25‐overexpressing cells; cell line not stated

Amino acid sequences for entries named in this document (tags omitted).
UniProt Q14258: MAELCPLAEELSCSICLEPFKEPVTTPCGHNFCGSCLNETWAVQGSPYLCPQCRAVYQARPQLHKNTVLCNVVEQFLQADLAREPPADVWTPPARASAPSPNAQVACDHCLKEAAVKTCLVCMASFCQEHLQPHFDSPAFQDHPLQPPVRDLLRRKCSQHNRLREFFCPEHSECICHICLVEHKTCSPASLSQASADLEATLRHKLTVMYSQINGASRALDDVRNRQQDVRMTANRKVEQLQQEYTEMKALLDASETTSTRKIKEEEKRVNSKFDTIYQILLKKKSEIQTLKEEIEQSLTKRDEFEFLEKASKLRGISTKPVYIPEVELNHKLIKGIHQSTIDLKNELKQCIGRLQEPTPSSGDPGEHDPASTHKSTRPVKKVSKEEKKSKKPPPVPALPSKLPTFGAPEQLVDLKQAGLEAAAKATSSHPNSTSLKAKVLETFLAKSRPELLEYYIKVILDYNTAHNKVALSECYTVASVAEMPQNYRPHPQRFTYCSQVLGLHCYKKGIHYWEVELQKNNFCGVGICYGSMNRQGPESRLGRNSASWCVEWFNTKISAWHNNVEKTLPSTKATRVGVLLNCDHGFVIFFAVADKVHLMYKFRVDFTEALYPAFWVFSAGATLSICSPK

- binding: binds
B1: INSIG1 found in the TRIM25 immunoprecipitate by mass spectrometry (protein, UniProt O15503 1-277)
chain: MPRLHDHFWSCSCAHSARRRGPPRASAAGLAAKVGEMINVSVSGPSLLAAHGAPDADPAPRGRSAAMSGPEPGSPYPNTWHHRLLQRSLVLFSVGVVLALVLNLLQIQRNVTLFPEEVIATIFSSAWWVPPCCGTAAAVVGLLYPCIDSHLGEPHKFKREWASVMRCIAVFVGINHASAKLDFANNVQLSLTLAALSLGLWWTFDRSRSGLGLGITIAFLATLITQFLVYNGVYQYTSPDFLYIRSWLPCIFFSGGVTVGNIGRQLAMGVPEKPHSD

Reference: PMC12140344
